The list shows a part of the results.

Protein sequences, listed by entry. Tags and fused reporters are not part of them. Lines headed by an entry give the natural chain unless they say otherwise; changes in a name come on top.
UniProt Q07973: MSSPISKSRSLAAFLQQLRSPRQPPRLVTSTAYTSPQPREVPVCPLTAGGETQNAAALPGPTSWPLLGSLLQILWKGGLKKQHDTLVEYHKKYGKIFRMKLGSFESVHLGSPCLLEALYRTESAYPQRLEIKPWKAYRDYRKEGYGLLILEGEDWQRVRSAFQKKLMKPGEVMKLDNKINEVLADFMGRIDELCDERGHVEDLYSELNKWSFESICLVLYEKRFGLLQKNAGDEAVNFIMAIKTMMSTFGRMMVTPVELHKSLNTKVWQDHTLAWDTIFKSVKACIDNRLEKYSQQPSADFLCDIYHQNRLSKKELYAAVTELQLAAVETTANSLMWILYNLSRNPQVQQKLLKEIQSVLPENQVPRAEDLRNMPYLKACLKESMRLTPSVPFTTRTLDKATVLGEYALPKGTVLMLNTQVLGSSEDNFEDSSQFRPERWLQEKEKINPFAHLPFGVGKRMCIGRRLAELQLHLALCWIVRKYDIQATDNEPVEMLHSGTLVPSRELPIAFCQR
UniProt Q14118: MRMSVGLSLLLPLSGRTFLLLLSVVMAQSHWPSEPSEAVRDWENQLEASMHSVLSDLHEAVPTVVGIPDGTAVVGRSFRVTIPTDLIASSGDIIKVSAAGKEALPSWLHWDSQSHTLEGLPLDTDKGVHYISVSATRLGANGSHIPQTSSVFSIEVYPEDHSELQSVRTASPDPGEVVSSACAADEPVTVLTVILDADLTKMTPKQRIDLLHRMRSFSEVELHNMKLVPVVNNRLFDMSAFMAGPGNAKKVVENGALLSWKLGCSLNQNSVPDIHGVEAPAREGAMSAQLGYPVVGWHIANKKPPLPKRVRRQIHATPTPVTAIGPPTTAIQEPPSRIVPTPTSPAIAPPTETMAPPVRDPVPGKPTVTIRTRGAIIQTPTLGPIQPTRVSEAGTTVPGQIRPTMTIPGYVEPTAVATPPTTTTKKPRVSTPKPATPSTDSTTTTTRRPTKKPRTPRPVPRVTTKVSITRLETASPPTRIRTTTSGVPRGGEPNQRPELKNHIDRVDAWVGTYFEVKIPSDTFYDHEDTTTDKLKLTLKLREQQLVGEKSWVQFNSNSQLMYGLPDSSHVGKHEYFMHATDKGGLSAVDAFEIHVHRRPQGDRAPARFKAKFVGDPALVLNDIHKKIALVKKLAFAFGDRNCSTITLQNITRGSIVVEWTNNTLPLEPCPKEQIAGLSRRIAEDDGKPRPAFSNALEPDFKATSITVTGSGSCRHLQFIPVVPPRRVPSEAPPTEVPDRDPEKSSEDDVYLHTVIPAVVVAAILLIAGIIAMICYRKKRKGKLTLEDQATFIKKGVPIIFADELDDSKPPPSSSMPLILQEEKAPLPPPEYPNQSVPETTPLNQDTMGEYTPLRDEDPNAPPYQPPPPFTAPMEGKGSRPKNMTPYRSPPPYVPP
UniProt P26196: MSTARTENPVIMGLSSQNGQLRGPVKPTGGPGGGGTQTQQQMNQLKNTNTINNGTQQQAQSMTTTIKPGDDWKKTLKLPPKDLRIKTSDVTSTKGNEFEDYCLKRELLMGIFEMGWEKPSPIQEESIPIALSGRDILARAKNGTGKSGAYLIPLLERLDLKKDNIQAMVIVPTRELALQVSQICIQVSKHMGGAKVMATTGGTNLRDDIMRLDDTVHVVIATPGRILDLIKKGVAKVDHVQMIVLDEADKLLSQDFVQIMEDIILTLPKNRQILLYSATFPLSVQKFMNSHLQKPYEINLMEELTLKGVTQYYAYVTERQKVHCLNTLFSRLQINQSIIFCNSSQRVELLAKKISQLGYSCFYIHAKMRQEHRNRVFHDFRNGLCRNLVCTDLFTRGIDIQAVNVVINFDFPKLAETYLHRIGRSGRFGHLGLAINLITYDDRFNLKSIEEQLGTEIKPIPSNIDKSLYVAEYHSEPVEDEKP
UniProt Q8IWF6: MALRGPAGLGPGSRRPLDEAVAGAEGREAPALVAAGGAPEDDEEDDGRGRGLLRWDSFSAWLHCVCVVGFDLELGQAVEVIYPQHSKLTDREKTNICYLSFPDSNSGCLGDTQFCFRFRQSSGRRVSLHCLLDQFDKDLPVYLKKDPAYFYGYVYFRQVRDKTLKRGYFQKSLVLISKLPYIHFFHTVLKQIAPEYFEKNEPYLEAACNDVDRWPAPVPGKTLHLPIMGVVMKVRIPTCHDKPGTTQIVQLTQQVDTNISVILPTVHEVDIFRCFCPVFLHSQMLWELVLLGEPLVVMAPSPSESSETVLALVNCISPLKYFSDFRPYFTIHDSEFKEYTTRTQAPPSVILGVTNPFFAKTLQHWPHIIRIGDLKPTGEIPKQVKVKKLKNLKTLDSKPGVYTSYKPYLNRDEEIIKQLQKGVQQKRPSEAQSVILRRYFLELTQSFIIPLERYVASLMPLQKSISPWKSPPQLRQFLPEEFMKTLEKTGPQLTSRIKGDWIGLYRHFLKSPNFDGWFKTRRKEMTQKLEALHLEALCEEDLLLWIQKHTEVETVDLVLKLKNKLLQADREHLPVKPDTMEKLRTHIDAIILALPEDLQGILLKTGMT
UniProt Q9BTE7: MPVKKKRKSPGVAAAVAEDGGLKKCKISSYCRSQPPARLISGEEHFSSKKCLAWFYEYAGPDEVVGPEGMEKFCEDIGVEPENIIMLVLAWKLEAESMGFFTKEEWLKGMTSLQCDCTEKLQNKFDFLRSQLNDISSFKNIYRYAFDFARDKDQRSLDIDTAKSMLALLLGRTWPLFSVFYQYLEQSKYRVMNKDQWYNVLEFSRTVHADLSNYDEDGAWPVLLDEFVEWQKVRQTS
UniProt Q9NUI1: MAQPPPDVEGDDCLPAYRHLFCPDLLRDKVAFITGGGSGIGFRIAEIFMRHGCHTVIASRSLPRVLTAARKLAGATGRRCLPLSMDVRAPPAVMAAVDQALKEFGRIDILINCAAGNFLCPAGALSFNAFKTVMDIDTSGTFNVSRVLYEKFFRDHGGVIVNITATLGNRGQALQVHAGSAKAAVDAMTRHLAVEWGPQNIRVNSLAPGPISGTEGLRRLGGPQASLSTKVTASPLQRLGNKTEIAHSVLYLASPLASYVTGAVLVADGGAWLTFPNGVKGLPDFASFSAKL
UniProt Q8NHQ9: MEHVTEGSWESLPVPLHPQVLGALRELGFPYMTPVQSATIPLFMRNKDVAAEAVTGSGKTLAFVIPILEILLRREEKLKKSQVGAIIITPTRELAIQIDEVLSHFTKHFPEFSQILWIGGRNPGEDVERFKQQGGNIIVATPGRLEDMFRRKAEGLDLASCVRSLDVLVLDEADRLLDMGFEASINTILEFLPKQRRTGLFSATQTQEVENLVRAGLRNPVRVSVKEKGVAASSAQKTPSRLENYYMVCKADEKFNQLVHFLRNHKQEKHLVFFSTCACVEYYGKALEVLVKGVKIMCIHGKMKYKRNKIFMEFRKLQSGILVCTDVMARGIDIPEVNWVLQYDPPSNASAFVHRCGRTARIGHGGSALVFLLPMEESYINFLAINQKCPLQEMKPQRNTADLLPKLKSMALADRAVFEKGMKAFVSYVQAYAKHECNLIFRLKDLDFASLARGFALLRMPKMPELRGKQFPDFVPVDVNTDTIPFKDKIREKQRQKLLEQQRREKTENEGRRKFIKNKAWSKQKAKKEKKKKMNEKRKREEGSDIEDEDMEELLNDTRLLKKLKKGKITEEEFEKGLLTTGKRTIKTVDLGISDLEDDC
UniProt O00273: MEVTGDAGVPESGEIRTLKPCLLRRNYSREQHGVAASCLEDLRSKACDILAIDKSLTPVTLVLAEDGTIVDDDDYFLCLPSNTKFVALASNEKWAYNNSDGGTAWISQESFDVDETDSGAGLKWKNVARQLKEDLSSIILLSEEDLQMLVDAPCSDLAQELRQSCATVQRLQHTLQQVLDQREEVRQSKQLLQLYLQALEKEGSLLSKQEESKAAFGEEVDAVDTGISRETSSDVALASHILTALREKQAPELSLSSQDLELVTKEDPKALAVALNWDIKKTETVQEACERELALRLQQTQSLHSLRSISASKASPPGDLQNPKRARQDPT
UniProt Q16698: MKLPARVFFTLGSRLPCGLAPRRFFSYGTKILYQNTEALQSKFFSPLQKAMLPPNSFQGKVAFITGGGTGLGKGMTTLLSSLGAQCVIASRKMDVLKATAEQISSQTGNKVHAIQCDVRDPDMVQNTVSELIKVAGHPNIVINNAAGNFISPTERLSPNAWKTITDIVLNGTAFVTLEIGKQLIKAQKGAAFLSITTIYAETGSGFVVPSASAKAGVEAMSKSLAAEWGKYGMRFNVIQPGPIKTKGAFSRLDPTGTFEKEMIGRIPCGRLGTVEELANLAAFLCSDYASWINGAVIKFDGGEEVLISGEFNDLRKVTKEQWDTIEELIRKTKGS
UniProt Q7L014: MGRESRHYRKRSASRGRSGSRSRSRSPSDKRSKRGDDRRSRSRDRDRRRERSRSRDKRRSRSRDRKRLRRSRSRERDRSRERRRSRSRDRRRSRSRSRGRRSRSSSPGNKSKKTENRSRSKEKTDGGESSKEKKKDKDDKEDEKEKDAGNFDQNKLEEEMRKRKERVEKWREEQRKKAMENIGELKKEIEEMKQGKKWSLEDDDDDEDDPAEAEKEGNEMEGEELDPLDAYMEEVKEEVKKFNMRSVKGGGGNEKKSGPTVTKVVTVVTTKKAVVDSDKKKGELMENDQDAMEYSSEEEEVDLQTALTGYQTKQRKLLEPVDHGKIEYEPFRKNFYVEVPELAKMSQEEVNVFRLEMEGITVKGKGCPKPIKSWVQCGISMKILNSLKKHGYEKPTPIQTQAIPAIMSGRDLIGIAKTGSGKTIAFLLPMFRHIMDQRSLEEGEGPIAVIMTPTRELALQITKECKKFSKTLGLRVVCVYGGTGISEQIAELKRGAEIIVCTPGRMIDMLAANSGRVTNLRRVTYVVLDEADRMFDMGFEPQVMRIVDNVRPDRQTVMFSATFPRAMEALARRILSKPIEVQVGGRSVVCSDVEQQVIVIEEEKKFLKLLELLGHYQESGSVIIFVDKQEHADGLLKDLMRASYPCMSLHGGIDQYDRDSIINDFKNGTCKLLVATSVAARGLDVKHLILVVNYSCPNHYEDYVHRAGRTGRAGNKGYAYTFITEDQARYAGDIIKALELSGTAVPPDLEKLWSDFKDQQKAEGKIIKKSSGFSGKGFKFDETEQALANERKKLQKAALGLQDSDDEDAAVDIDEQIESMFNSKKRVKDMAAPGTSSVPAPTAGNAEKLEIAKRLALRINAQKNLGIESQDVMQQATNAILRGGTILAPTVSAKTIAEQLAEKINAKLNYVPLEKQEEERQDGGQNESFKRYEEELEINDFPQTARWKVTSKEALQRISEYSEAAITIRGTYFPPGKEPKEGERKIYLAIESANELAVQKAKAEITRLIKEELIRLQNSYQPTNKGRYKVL
UniProt Q92841: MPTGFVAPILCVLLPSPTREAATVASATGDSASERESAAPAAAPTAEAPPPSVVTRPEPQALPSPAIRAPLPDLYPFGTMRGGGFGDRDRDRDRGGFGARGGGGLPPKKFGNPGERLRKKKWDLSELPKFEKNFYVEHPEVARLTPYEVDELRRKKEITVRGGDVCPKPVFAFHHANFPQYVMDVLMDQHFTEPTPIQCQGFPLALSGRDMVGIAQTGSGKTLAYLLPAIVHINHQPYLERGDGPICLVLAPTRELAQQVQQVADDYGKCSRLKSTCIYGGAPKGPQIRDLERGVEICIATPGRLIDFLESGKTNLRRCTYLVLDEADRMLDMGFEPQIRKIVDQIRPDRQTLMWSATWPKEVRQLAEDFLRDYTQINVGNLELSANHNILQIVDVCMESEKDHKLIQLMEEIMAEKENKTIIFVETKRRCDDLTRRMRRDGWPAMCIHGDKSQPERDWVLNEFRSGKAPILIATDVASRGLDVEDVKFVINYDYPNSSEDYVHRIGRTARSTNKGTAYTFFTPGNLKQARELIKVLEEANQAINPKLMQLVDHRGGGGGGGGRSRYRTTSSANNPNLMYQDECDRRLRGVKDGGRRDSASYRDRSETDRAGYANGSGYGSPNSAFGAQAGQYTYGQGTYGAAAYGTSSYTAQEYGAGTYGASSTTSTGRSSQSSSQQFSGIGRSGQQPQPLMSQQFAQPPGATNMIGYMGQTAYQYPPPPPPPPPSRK
UniProt Q13838, whole entry, looked up: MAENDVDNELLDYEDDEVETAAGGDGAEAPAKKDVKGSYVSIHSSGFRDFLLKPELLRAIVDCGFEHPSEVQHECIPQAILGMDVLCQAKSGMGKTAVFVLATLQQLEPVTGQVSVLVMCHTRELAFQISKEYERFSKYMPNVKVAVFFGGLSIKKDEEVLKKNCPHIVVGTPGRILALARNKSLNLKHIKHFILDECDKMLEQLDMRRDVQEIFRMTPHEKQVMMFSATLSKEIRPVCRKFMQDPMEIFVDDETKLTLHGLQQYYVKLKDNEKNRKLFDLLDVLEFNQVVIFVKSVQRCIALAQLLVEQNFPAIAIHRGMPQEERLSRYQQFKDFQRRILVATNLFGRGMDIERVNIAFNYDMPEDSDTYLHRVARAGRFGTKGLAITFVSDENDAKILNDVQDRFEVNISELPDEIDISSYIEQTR

Compound in this test: CN1CCN(c2nc(C3=C(c4c[nH]c5ccccc45)C(=O)NC3=O)c3ccccc3n2)CC1 [sotrastaurin]
Nature of the test: log2 fold change, soluble protein after heating vs DMSO (PISA); higher = thermal stabilisation; K562 lysate, 10 uM; active = over 0.2 and 3.5 SD of the protein, either way, in both replicates (recomputed). The gist of the method:
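Soluble protein was defined as the supernatant remaining after 21,000xg for 90 min, following pooling of heated aliquots and adjustment to 0.5% NP-40 at 4°C. Before that, crude K562 extract at 1 mg/mL protein in PBS pH 7.4 with 1 mM MgCl2 was treated with 10 μM compound for 30 min and heated for 3 min across 48°C-58°C. Quantification used TMTpro 16plex LC-MS/MS with channel sums equalised, and values are log-two fold changes in thermal stability relative to solvent controls from duplicates.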
As to DDX39A (UniProt O00148), the log2 fold change was inactive: -0.002. Under DCTN3 (UniProt O75935) stands inactive: -0.025.

In the case of DDX20 (UniProt Q9UHI6), the log2 fold change was inactive: 0.004. With DDX59 (UniProt Q5T1V6), the log2 fold change was inactive: 0. With DEK (UniProt P35659), the log2 fold change is inactive: -0.037.

For DENND4C (UniProt Q5VZ89), the log2 fold change is inactive: 0.025. For the target DCP2 (UniProt Q8IU60), the log2 fold change was inactive: -0.01. For the target CYP24A1 (UniProt Q07973), the log2 fold change is inactive: 0. Regarding DCUN1D1 (UniProt Q96GG9), the log2 fold change was inactive: 0.011. In the case of DAG1 (UniProt Q14118), the log2 fold change is inactive: 0.011. With DAZAP1 (UniProt Q96EP5), the log2 fold change is inactive: -0.109. In the case of DAB2 (UniProt P98082), the log2 fold change is inactive: -0.033.

Take DDAH2 (UniProt O95865): the log2 fold change is inactive: -0.001. DES (UniProt P17661): the log2 fold change was inactive: -0.012.

Consider DDX6 (UniProt P26196), for which the log2 fold change was inactive: -0.003. Take DCAF6 isoform 3 (UniProt Q58WW2): the log2 fold change is inactive: 0. As for DCXR (UniProt Q7Z4W1), the log2 fold change was inactive: -0.034.

As to DDX49 (UniProt Q9Y6V7), the log2 fold change is inactive: -0.007.

As for DENND6A (UniProt Q8IWF6), the log2 fold change was inactive: -0.027. With DCUN1D5 (UniProt Q9BTE7), the log2 fold change was inactive: 0.013. For the target DECR2 (UniProt Q9NUI1), the log2 fold change is inactive: -0.015.

DBN1 (UniProt Q16643): the log2 fold change is inactive: 0.006. Under DDX55 (UniProt Q8NHQ9) stands inactive: 0.051. For DFFA (UniProt O00273), the log2 fold change is inactive: -0.047. With DCAF1 (UniProt Q9Y4B6), the log2 fold change is inactive: 0.028. On to DDX54 isoform 2 (UniProt Q8TDD1), for which the log2 fold change was inactive: 0.045. For DECR1 (UniProt Q16698), the log2 fold change is inactive: -0.01. With DCTN5 (UniProt Q9BTE1), the log2 fold change is inactive: -0.034. For D2HGDH (UniProt Q8N465), the log2 fold change was inactive: 0.007. For the target DERPC (UniProt P0CG12), the log2 fold change was inactive: -0.271.

Turning to DCUN1D4 isoform 3 (UniProt Q92564), the log2 fold change was inactive: 0.028. Under DCP1A (UniProt Q9NPI6) stands inactive: -0.053.

As for DDX18 (UniProt Q9NVP1), the log2 fold change is inactive: 0.037. Turning to DDX46 (UniProt Q7L014), the log2 fold change is inactive: 0.012.

For DDX17 (UniProt Q92841), the log2 fold change is inactive: 0.014. Under DCAF7 (UniProt P61962) stands inactive: 0.006; under DDX39B isoform 2 (UniProt Q13838), inactive: -0.017.

Take DDX21 (UniProt Q9NR30): the log2 fold change is inactive: 0.006. Consider DCTD isoform 2 (UniProt P32321), for which the log2 fold change is inactive: -0.027. CZIB (UniProt Q9NWV4): the log2 fold change was inactive: 0.02.
